Data as given in article doi:10.1101/2025.01.15.633117.
No constants are given. Whether binding was seen depends on the method and setting. In cells and extracts the contact can be indirect. A yes stands for co-enrichment or nearness to the bait. Other partners may have been found. For some of these results: Sequences can lack the tags named with a protein.

Sequences of proteins named here, by UniProt entry; tags and fusion partners are left off. Residues count along the entry.
UniProt Q01974, residues 34-943: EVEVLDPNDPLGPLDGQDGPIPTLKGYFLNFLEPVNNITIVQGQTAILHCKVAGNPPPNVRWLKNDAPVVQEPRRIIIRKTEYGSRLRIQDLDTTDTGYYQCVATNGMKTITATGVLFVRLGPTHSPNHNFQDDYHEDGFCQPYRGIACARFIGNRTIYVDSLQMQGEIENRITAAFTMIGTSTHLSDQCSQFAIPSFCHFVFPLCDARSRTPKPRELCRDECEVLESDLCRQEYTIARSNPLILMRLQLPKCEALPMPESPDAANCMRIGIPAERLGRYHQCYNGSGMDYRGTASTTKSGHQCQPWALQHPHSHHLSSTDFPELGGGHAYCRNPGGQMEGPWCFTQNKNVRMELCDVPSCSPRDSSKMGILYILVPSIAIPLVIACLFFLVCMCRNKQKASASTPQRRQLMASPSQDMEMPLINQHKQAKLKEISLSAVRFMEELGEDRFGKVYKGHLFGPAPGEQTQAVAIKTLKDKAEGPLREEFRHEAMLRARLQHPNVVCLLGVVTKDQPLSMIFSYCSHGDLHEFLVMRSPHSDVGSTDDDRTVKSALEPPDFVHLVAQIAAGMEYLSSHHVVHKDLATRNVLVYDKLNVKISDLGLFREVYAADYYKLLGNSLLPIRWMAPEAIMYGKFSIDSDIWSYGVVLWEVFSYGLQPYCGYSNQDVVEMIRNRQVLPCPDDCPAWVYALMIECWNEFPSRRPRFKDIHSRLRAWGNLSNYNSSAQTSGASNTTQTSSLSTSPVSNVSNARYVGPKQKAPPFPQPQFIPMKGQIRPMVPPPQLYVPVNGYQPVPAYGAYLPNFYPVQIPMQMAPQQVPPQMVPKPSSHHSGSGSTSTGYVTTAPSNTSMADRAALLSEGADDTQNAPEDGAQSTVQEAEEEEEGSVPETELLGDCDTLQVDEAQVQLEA
UniProt Q01973, residues 30-937: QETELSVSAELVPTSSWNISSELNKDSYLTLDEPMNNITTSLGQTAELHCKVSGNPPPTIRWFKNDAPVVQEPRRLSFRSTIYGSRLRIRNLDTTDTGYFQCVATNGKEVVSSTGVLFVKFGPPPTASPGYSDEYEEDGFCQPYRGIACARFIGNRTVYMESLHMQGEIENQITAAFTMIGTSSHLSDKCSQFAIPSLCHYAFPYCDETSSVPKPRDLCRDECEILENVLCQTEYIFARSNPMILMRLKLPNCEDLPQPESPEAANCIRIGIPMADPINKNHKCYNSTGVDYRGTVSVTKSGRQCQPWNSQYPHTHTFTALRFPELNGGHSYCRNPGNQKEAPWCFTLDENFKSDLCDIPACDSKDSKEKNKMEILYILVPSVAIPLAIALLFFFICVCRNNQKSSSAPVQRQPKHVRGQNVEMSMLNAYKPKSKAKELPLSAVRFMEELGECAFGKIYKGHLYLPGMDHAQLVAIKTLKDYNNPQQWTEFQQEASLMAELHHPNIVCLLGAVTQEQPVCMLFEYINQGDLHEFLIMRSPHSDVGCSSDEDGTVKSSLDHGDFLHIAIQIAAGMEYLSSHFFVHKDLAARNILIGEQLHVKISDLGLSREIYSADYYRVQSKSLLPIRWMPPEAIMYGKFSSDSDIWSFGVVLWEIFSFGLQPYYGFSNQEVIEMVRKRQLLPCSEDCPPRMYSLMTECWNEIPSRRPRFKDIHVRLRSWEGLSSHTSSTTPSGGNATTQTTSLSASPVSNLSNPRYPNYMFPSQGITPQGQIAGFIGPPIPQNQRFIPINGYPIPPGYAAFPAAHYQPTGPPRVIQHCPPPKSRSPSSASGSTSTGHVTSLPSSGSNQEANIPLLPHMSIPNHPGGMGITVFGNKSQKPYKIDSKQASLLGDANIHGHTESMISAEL
UniProt P29317, residues 24-976: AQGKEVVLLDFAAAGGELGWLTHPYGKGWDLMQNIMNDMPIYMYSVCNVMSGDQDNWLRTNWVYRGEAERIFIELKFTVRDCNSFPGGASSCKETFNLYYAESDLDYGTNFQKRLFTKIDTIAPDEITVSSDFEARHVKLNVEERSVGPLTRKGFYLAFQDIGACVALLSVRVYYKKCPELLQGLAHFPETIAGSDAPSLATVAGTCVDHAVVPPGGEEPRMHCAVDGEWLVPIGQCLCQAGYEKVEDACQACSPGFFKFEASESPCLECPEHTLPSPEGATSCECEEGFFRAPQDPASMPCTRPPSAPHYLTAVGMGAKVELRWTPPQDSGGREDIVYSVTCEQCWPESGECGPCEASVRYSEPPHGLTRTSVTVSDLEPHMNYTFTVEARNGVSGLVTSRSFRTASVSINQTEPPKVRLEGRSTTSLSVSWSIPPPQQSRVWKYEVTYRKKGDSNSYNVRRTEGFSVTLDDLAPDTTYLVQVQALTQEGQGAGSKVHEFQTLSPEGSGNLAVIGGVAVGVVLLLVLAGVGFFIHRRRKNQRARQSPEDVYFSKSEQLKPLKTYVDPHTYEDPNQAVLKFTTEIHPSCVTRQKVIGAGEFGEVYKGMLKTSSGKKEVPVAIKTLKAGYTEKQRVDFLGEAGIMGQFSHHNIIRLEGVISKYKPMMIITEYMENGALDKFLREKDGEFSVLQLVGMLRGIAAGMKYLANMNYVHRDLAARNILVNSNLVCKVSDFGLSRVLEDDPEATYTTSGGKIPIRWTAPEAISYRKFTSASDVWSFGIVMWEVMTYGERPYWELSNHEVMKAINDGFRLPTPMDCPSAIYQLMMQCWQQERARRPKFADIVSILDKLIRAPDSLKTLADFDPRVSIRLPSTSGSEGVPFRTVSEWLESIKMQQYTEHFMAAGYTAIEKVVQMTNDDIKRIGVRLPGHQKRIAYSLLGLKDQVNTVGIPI
UniProt O14641: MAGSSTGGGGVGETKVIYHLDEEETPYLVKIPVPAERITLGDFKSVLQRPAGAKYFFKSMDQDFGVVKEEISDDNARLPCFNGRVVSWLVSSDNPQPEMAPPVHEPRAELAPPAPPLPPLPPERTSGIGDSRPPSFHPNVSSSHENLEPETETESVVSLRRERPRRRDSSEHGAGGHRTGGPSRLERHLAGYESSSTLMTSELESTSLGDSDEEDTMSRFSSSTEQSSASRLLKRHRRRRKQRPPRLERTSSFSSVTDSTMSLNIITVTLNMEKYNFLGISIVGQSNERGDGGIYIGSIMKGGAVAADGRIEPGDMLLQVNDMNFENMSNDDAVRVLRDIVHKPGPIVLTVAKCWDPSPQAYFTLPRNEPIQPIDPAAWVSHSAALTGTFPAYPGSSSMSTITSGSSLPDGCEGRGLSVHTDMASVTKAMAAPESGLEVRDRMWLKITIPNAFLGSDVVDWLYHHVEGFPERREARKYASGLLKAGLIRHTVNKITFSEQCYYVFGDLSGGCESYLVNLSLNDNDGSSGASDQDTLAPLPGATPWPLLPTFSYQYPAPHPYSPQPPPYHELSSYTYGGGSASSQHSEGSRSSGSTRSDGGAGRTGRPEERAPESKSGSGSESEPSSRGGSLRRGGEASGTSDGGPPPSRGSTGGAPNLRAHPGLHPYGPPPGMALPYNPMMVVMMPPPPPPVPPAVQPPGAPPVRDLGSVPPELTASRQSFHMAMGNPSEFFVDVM

Legend:
Assay in all cases: proximity labelling
MYC-BirA*-DVL3 (human) = target: T1, MYC-BirA*-DVL3 (human) (UniProt Q92997)
T1 sequence: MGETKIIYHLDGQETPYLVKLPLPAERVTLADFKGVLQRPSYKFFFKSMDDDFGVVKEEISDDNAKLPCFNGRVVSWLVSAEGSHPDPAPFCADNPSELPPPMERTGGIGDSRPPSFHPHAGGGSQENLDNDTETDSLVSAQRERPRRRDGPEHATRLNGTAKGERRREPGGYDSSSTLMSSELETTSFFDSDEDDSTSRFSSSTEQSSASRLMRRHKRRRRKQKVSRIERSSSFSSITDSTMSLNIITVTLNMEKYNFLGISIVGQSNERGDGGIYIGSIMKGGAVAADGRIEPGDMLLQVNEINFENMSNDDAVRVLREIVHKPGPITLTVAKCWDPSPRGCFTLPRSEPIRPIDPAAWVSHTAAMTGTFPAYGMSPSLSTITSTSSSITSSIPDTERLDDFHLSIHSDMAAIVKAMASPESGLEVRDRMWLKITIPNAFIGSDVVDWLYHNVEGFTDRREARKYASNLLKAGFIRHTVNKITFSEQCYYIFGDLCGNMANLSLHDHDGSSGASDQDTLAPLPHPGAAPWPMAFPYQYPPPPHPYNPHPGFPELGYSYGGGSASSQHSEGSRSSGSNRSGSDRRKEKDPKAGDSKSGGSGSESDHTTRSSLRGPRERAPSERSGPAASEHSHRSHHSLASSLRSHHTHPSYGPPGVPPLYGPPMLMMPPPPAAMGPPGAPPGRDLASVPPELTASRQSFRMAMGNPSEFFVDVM

VANGL2-BirA*-HA (human) = target: T2, VANGL2-BirA*-HA (human) (UniProt Q9ULK5)
T2 sequence: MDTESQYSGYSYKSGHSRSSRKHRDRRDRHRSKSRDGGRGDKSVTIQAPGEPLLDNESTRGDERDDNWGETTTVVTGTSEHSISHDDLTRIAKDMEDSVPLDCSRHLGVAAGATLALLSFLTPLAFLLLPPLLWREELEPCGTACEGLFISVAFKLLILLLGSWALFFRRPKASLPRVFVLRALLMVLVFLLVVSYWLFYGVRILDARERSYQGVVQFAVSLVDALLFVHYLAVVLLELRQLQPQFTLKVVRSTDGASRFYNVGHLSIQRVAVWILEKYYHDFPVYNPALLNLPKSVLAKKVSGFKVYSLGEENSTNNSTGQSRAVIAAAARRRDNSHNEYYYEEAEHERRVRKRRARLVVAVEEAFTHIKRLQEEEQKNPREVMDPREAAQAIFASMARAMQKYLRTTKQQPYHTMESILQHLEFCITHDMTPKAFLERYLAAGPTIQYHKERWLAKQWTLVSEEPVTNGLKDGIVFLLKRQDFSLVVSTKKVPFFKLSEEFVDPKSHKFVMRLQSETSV

ROR2-BirA*-HA (human) = ROR2-BirA*-HA (human) (UniProt Q01974)
ROR1-BirA*-HA (human) = ROR1-BirA*-HA (human) (UniProt Q01973)
[1] = target: T3, MYC-BirA*-PRICKLE1 (human) (UniProt Q96MT3)
T3 sequence: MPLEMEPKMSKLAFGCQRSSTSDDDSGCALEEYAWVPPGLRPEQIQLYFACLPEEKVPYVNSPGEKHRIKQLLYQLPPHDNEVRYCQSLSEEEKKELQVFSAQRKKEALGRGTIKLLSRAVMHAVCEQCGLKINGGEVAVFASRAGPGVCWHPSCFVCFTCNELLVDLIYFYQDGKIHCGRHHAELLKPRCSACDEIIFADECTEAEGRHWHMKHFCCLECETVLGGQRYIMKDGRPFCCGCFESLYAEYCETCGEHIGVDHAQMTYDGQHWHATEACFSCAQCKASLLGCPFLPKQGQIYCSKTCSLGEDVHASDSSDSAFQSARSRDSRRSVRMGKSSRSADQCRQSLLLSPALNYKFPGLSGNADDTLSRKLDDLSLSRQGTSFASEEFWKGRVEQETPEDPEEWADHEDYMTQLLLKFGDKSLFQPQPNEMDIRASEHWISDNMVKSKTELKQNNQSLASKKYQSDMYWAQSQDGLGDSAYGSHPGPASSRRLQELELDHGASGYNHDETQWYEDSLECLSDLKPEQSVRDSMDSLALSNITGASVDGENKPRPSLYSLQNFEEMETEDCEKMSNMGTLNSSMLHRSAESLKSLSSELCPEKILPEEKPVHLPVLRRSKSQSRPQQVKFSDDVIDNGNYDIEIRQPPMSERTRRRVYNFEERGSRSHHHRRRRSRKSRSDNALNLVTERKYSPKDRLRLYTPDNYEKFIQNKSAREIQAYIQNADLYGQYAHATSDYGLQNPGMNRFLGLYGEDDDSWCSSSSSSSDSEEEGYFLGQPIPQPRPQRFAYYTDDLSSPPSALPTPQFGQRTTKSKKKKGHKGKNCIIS

[2] = target: EPHA2-V5-miniTurboID (human) (UniProt P29317)
[3] = target: T4, RAI14-V5-miniTurboID (human) (UniProt Q9P0K7)
T4 sequence: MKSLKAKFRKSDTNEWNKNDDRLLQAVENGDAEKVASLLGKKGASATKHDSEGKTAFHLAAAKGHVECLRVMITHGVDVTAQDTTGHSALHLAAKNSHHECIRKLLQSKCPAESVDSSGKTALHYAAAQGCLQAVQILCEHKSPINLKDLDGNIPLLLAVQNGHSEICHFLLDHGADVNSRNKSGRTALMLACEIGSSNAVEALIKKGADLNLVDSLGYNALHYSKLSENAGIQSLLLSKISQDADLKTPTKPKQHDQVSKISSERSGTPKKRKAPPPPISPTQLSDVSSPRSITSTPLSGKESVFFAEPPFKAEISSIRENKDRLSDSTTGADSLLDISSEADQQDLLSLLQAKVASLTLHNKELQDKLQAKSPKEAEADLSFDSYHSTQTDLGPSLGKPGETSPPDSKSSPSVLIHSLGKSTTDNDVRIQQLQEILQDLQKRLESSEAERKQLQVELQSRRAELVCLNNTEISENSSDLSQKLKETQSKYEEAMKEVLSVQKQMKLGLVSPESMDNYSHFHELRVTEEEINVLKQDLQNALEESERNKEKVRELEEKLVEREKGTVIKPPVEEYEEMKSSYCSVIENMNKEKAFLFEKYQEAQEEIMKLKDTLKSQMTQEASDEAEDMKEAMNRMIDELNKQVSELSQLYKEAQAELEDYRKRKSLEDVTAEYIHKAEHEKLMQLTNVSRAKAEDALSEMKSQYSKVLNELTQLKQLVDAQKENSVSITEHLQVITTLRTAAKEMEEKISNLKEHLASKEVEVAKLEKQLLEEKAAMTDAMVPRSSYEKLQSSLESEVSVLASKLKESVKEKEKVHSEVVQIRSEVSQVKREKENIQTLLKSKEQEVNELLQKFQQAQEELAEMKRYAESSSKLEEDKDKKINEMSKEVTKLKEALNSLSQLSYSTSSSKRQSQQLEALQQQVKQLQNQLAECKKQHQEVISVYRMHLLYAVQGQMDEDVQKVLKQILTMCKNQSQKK

Measured: binding

DVL2 (from UniProt O14641 1-736)
not listed: [2] | [3]
binds: all other assays above

B1: PRICKLE1 (endogenous) (protein, UniProt Q96MT3 1-831)
chain: T3 sequence
binds: [2] | [3]
